# Screening data

From PubChem BioAssay record AID1347126 (NCATS, 2019).

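Living Rh30 pediatric sarcoma cells are counted via a glow-based readout after two days of compound exposure.
Follow-up tests used an 11-step dilution series reaching roughly 46 µM at the top.
The number is the fitted half-maximal potency of the cell-killing curve; a lower value means a more potent compound.
Calls come from NCATS curve-class scoring: scores of 40 to 100 are active, 1 to 39 are inconclusive (weak, poorly fitted or top-dose-only curves), and no-curve class 4 is inactive.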

Values are in µM.
All entries here are filed as inconclusive.
These entries are mostly ones the record files as inconclusive; other results of the assay are not listed here.
A potency from a partial, single-point or poor curve is only a rough figure.
Some entries filed as inconclusive have a full curve.
The first word of each remark tells which way the curve ran; it can be opposite to the aim of the assay.
Activity scores are not listed here.

compound,potency (µM),curve as filed
CCCC(=O)O[C@]1(C(=O)COC(=O)CC)CC[C@H]2[C@@H]3CCC4=CC(=O)CC[C@]4(C)[C@H]3[C@@H](O)C[C@@]21C,0.8113,"cytotoxic, full curve, poor fit"
COc1cc(C[C@@H](CO)[C@H](CO)Cc2ccc(O)c(OC)c2)ccc1O,36.92,"cytotoxic, single point"
CC[C@@]1([C@@H]2O[C@@H]([C@H]3O[C@@](O)(CO)[C@H](C)C[C@H]3C)C[C@H]2C)CC[C@H]([C@]2(C)CC[C@]3(C[C@H](O)[C@@H](C)[C@@H]([C@@H](C)[C@@H](OC)[C@H](C)C(=O)O)O3)O2)O1,1.021,"cytotoxic, full curve, poor fit"
N[C@@H](Cc1ccc(N(CCCl)CCCl)cc1)C(=O)O,29.33,"cytotoxic, single point"
CN(C)CCCN1c2ccccc2Sc2ccc(C(F)(F)F)cc21,32.91,"cytotoxic, single point"
C[C@@]12OC(=O)[C@]1([C@@H](O)[C@@H]1C=CCCC1)NC(=O)[C@H]2CCCl,5.216,"cytotoxic, partial curve, poor fit"
Cc1c(NC(=O)OC[C@@H]2COCCN2)cn2ncnc(Nc3ccc4c(cnn4Cc4cccc(F)c4)c3)c12,0.0023,"rising, full curve"
CC(C)[C@]12O[C@@H]1[C@@H]1O[C@]13[C@]1(O[C@H]1C[C@@H]1C4=C(CC[C@@]13C)C(=O)OC4)[C@H]2O,0.0261,"cytotoxic, full curve"
Cc1cc(Nc2ncnc3ccc(-c4ccc(CNCCS(C)(=O)=O)o4)cc23)ccc1Oc1ccn2ncnc2c1,0.147,"cytotoxic, full curve, poor fit"
COC(=O)C1C2CC3c4[nH]c5cc(OC)ccc5c4CCN3CC2CC(OC(=O)c2cc(OC)c(OC)c(OC)c2)C1OC (centres undefined),23.3,"cytotoxic, single point"
Cn1c2ccccc2c2c3c(c4c5ccccc5n(CCC#N)c4c21)CNC3=O,1.168,"cytotoxic, partial curve, poor fit"

The first 2 entries again:

| compound | potency (µM) | curve as filed |
|---|---|---|
| `CCCC(=O)O[C@]1(C(=O)COC(=O)CC)CC[C@H]2[C@@H]3CCC4=CC(=O)CC[C@]4(C)[C@H]3[C@@H](O)C[C@@]21C` | 0.8113 | cytotoxic, full curve, poor fit |
| `COc1cc(C[C@@H](CO)[C@H](CO)Cc2ccc(O)c(OC)c2)ccc1O` | 36.92 | cytotoxic, single point |